According to article PMC10163288:
This is one part of the list.

B1: il2ra_site1_2b5i_sap_14_mot_HHH_b1_01346_af2_000000027_0001_1_20_H_._HHH_b2_00868_0001_0000100002_0000001_0_0001_af2pred_dldesign_0_af2pred (protein)
chain: SSSSSPEVLARIAEARRLHAAGRWREAFDLLNELKKELDAKGADEEAQLVEDAYEALLRESSSSS
B2: il2ra_site2_3nfp_sap_17_mot_HHH_b2_07129_000000128_0001_19_36_H_._HHH_b1_06271_0001_0000200007_0000001_0_0001 (protein)
chain: SSSSDKEERLKQLLEELEELLEEGDYLEFARVAREILRLAEELGDEEAARIVLELFKEAQSSSSS
B3: il2ra_site2_2erj_normal_mot_HHH_b2_01204_af2_000000056_0001_19_34_H_._HHH_b2_01454_0001_0000200016_0000001_0 (protein)
chain: SSSSDEELREAYRLVVEVMHALTRNDEERFEKLLEEARRVAEEFNSESLLEALELLEELGSSSSS
B4: il2ra_site2_2erj_sap_18_mot_cf89365494dbba80ae51c8475d1ce666_0001_af2_000000081_0001_35_48_H_._HHH_b1_00889_0001_0000700034_0000001_0_0001 (protein)
chain: SSSSDALRFTFEILSRLMHLLAEGNEEEAEKLVEEAEEFLEHRDEHLLELLREFFEHLKSLSSSS
B5: il2ra_site1_3nfp_sap_19_mot_HHH_b1_01736_000000293_0001_24_39_H_._HHH_b2_06675_0001_0000200013_0000001_0_0001_af2pred_0001_af2pred (protein)
chain: SSSSDRSREFNRLAREVLELLQEGDKEEAEKVLEELKKHAEELGDPNAKRMVEFLEKKVNSSSSS
B6: il2ra_site2_3nfp_normal_mot_HHH_b1_05627_af2_000000038_0001_43_56_H_._HHH_b1_03590_0001_0000200036_0000001_0 (protein)
chain: SSSSSDKSEEYVRVALELAKRTEDEEVRERSLELARLLAESLNNPELEELVKEVAEELRKSSSSS
B7: il2ra_site2_3nfp_sap_23_mot_HHH_b1_03376_000000004_0001_41_55_H_._HHH_b2_04970_af2_0001_0000600013_0000001_0_0001 (protein)
chain: SSSSDHHEEYLEAALLLLEEAIENRDEHAVKTALELLELAIQSNNDEEAEELLERLEREFGSSSS
B8: il2ra_site1_2b5i_sap_14_mot_HHH_b1_01949_af2_000000041_0001_1_19_H_._HHH_b2_08251_0001_0000100007_0000001_0_0001_af2pred_dldesign_0_af2pred (protein)
chain: SSSSSAELEALREEAERLMRSRDKAGLRELAERLRALYEETRDPEVRRLLAEVERWLELASSSSS
B9: il2ra_site1_3nfp_sap_16_mot_HHH_b2_06429_af2_000000115_0001_1_18_H_._HHH_b1_00844_0001_0000600031_0000001_0_0001_af2pred_0001_af2pred_1 (protein)
chain: SSSSDEESEEVLEEAEKLIRRLLEEGNPLEALRAADEYLRILAKLGDPEAVERLAEFARELSSSS
B10: il2ra_site2_3nfp_normal_mot_HHH_b1_03376_000000004_0001_41_55_H_._HHH_b1_05644_af2_0001_0000900045_0000001_0_af2pred_0001_af2pred (protein)
chain: SSSSSEEEREIKELLEEAQELLKNGNPEEAEKVVLEAALLAFEIRNPELRREAAELLLSIRSSSS
B11: il2ra_site1_3nfp_normal_mot_46d73865503fbedcaf0f3a45445d594c_0001_af2_000000151_0001_1_12_H_._HEEHE_2114_af2_0001_0000200007_0000001_0 (protein)
chain: DEEETFEKAVEELAKVAGVPSVTVEEHNGRFTVTVEGSDSDARNALKLIELAARARGLEVELREG
B12: il2ra_site1_2b5i_sap_20_mot_e6a9f0e24292654465a3c3805779fe2a_0001_1_af2_000000226_0001_15_31_H_._07531ca91c5b0cc5c2ed90a52fa42f9e_0001_1_af2_0001_0000500079_000 … (protein)
chain: SSSSSDAQAIADRALEEARALAAAGRRREALEVLDKAIKEVDALDDEAAADRLEALALELSSSSS
B13: il2ra_site2_2erj_normal_mot_HHH_b2_00636_000000258_0001_1_19_H_._HHH_b1_05458_af2_0001_0000200021_0000001_1 (protein)
chain: SSSDEEEEIEELLKELERLIERNDVARAYEVVERLYELILELNDEEAARILARLTRLVVEISSSS
B14: il2ra_site1_3nfp_normal_mot_ems_3hM_3354_af2_000000165_0001_44_63_H_._HEEHE_2118_af2_0001_0000400032_0000001_0 (protein)
chain: DLLEEFERAVERIAEIAGVPHVEVEVRNGKVHVTFEGDDLQAKAASRIVEESARAFGIKVEVTVE
B15: il2ra_site2_3nfp_sap_24_mot_HHH_b2_02902_af2_000000043_0001_44_57_H_._313f487e3ec02f6225919a247f8b7ae5_0001_1_af2_0001_0000300010_0000001_0_0001 (protein)
chain: SSSSSDVEELLEEAEELTKEGDTEEALQVLLRAAALAWELGDFELFARVNELAEELAKLESSSSS
B16: il2ra_site2_3nfp_sap_22_mot_HHH_b2_00942_af2_000000289_0001_40_57_H_._ems_4hM_4290_0001_0000400052_0000001_0_0001 (protein)
chain: SSSSSEHERLWELSSEAFELLENGNPEEAEEVAEEARELAERLNDRVARRSIEELLRVISSSSSS
B17: il2ra_site2_2erj_sap_20_mot_HHH_eva_0050_af2_000000198_0001_43_62_H_._HHH_b1_02534_0001_0000100006_0000001_0_0001 (protein)
chain: SSSSSEEELRELFELAARLLALLSRGDEEEVQKVLEELEELARKLGSDVAEEVVEMIERELSSSS
B18: il2ra_site1_1z92_normal_mot_3c291a2f2994a8e029b17f9ec7f22732_0001_af2_000000144_0001_36_50_H_._66959ead3e6c57cb3ef8243f3eb758e0_0001_1_af2_0001_0000400035_00000 … (protein)
chain: ALSEEELEEAVEKNDEELLREFIKLLLEDAGDPRLVEQLLKILVKRLGLPPEVLERLRELLKELT
B19: il2ra_site1_2b5i_sap_8_mot_HHH_b1_01346_af2_000000027_0001_1_20_H_._39b139147af3ad00170bddbd6f59d520_0001_af2_0001_0000100002_0000001_1_0001 (protein)
chain: SSSSDEAVQRVTELFSEASRLWLKGNPEEARRLIEEAAELAKENNDERAQEDLERMLELLSSSSS
B20: il2ra_site1_1z92_normal_mot_HHH_b2_01478_000000292_0001_19_36_H_._36bcdb301988f4a659962e34de24edd2_0001_1_0001_0000100010_0000001_0_af2pred_0001_af2pred (protein)
chain: NVKEFLAEQLRRKPPEAVRKLLERLKEALKRSGTPPEEIREFLQELAELAGDPEVEKIVEELIKP
B21: il2ra_site2_3nfp_normal_mot_HHH_b1_01086_000000225_0001_20_36_H_._HHH_b2_06691_0001_0000400085_0000001_0_af2pred_0001_1_af2pred_swapped (protein)
chain: SSSSSDEELEEEIEELLEQAKHIEDPHERFAVLADAATLAIQNNDPEAERLVKEVARRLGSSSSS
B22: il2ra_site2_2erj_sap_27_mot_HHH_b1_06697_000000025_0001_41_54_H_._HHH_b2_06097_0001_0000200013_0000001_0_0001 (protein)
chain: SSSSDKLRELYKLAVELMRLVAEGDEERFEEVAEEVRKLVEELDSRTAREILEALERKIKSSSSS
B23: il2ra_site2_2erj_normal_mot_HHH_b1_02757_000000121_0001_41_57_H_._HHH_b2_06774_0001_0000100003_0000001_0_af2pred_0001_1_af2pred_swapped (protein)
chain: SSSSSDEEEVRERVEELLEEAKKIPDPREALKVLQEASELASEANDEELLELIRKVLRESSSSSS
B24: il2ra_site2_3nfp_normal_mot_HHH_b1_05547_af2_000000149_0001_21_38_H_._HHH_b1_04376_0001_0000200015_0000001_0 (protein)
chain: SSSSSDEEELERRIELLEQAAEARGDPEVLRKIEELLEEFRKEGDPRYTLKAYELLRRAYSSSSS
B25: il2ra_site1_1z92_normal_mot_HHH_b1_05973_af2_000000047_0001_39_50_H_._ems_3hM_2546_0001_0000100002_0000001_0_af2pred_0001_af2pred (protein)
chain: SSPEEARKLIEIIKKIAEERNSKSAKRFVEVAEEELKLAEEENDEEAIKLIAELLEQFLKFLNRS
B26: il2ra_site2_2erj_sap_14_mot_HHH_b2_05233_af2_000000237_0001_1_18_H_._04c2be03c051e241883c256f53f321d2_0001_0001_0000600029_0000001_0_0001 (protein)
chain: SSSSWQELYELARRIDRLLAEGDLEEAEKLIEELKELAEELNSETAKSAVKILEQSLRLERSSSS
B27: il2ra_site2_3nfp_sap_11_mot_HHH_b1_00660_af2_000000090_0001_40_57_H_._HHH_b2_05351_0001_0000600029_0000001_0_0001 (protein)
chain: SSSSSRSEEYLKAALELLELAVEEGDEEAVEKHTELVRLAAEDAGNPEVEERAEELKRELSSSSS
B28: il2ra_site2_2erj_normal_mot_8a316d4779eb53efc793250774d75e68_0001_af2_000000043_0001_18_32_H_._HHH_b1_06960_af2_0001_0000800004_0000001_0 (protein)
chain: SSSSSDVEEELKELIEEAEELKKENPEEAISVLIEAAELALQNNDEEIFKRVSELFEELFSSSSS
B29: il2ra_site2_2erj_sap_23_mot_HHH_b1_01555_af2_000000123_0001_22_39_H_._HHH_b2_01800_0001_0000100003_0000001_0_0001 (protein)
chain: SSSSSSQQEAWEEVAELLARAAHIPDPEEVEELLEEAKRLAEEANNEFLKKYIEFARRSHSSSSS
B30: il2ra_site1_2b5i_normal_mot_HHH_b1_08426_af2_000000046_0001_39_52_H_._HHH_b2_01859_af2_0001_0000200020_0000001_0_af2pred_0001_af2pred (protein)
chain: SSSSDDEEEEHVFKAFREASRLALRGNPEEAREVLEEALRLAEENNDERIVKDLEEFLKRLSSSS
B31: il2ra_site2_3nfp_normal_mot_HHH_b1_00660_af2_000000090_0001_40_57_H_._HHH_b2_00996_0001_0000300009_0000001_1_af2pred_0001_af2pred_swapped (protein)
chain: SSSSSEQEEAERLVEEVEELLKEGDPERAERLLKEASLVVAELGDEELFIALLQLRELLESSSSS
B32: il2ra_site2_2erj_normal_mot_HHH_b1_04373_af2_000000118_0001_18_33_H_._HHH_b1_00954_af2_0001_0000100003_0000001_0 (protein)
chain: SSSSDELEELYKLAVELLHLVYRGDEEEFEEVAKRVRELVEELQSESAREILEFLEEEIKSSSSS
B33: il2ra_site2_3nfp_normal_mot_HHH_b1_00660_af2_000000199_0001_40_57_H_._HHH_b1_04548_af2_0001_0000200005_0000001_0 (protein)
chain: SSSSDEEVEELLEEAKKLLEEGNPEEARKLIARAAAIAYELNDHELFAAVQELLEEIVRRSSSSS
B34: il2ra_site1_2b5i_normal_mot_HHH_b1_06258_af2_000000112_0001_42_56_H_._HHH_b1_00260_0001_0000100006_0000001_0 (protein)
chain: SSSSDEEEHEVTRLFSEASRAWKEGNPEEAQRLLEEALELAREIGDPRAEEQIRFMLERLRSSSS
B35: il2ra_site1_2b5i_normal_mot_HHH_b1_06844_000000212_0001_1_18_H_._HHH_b2_05789_0001_0000100007_0000001_0_af2pred_dldesign_0_af2pred (protein)
chain: SSSSSSSVEKAEEARRLFLEANTLEDEEERKKLLEEALKLAEEGKCSSLVKLLKLALELVSSSSS
B36: il2ra_site2_2erj_normal_mot_HHH_b2_06512_000000233_0001_19_37_H_._HEEHE_0423_0001_0000200005_0000001_1_af2pred_0001_1_af2pred_swapped (protein)
chain: SDEALAAIMIEAAAERAGVPSVSVEVSNGTIEVTVEGNDEAVEFLREIAENAAKLLGLEVHVETE
B37: il2ra_site1_2b5i_normal_mot_HHH_b2_04910_000000118_0001_1_19_H_._HHH_b2_03705_af2_0001_0000100001_0000001_0_af2pred_dldesign_0_af2pred (protein)
chain: SSSSSPLAREAYELFLKANELYQAGKEEEAKKVLEKAAEVAKAGGATSLLKLIESALKEFSSSSS

biological target: il2ra, P01589; assay: yeast display titration

Apparent Kd, inactive:
B1 no binding seen, B2 no binding seen, B3 no binding seen, B4 no binding seen, B5 no binding seen, B6 no binding seen, B7 no binding seen, B8 no binding seen, B9 no binding seen, B10 no binding seen, B11 no binding seen, B12 no binding seen, B13 no binding seen, B14 no binding seen, B15 no binding seen, B16 > 894 nM, B17 no binding seen, B18 no binding seen, B19 no binding seen, B20 no binding seen, B21 no binding seen, B22 no binding seen, B23 no binding seen, B24 no binding seen, B25 no binding seen, B26 no binding seen, B27 no binding seen, B28 no binding seen, B29 no binding seen, B30 no binding seen, B31 no binding seen, B32 no binding seen, B33 no binding seen, B34 no binding seen, B35 no binding seen, B36 no binding seen, B37 no binding seen
